# Library screen at single concentrations

Protein sequences, listed by entry. Tags and fused reporters are not part of them.
UniProt P9WFT3, whole entry: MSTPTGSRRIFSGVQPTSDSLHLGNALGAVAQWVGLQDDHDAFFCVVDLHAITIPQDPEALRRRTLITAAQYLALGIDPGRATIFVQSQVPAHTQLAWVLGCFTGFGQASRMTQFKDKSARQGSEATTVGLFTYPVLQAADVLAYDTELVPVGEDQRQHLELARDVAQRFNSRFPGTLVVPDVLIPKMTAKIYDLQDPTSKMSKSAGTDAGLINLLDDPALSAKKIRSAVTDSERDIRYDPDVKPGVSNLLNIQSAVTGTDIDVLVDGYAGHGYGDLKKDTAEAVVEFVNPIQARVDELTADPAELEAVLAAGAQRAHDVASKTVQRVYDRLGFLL

Source: ChEMBL document CHEMBL3988442, “University of Dundee, Small-Polar-MMV Screening Library” (2021).

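Enzyme assay of tryptophanyl-tRNA synthetase; the read-out is not stated. Target: Tryptophan-tRNA ligase, Mycobacterium tuberculosis (UniProt P9WFT3). Concentration: 10 µM. Higher most likely means stronger inhibition; the record gives no direction and few retests gave an IC50. Of about 65,000 compounds tested this way, about 64 (0.098%) reached 50% or more in at least one test.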

The filed quantity is “Percent Effect” (%). The controls that fix the scale are not given in the record; negative values are as filed. Compounds were drawn at random from those tested, without regard to their results.

COc1ccccc1NC(=O)c1[nH]nc(C(C)C)c1Br gave -4.137%. NC(=O)CN1CCCN(C(=O)c2ccn(-c3cccc(F)c3)n2)CC1 read -6.825%. Cc1cc(C)cc(OCCC(=O)N2CCOCC2c2ncon2)c1 (stereo not drawn) read -0.2916%. Result for NC(=O)N1CC[C@@H]2O[C@H](COCC(=O)N3CCCC3)CC[C@@H]21 was -4.505%. For O=C(O)CC1COCCN1CCCc1ccccc1 (stereo not drawn) the result was 2.855%. Result for Cc1ccc2nc(C3CCN(CC(C)C)CC3)nc(O)c2c1 was -7.347%. Result for COCCNS(=O)(=O)c1ccc(Cl)c(C(=O)N(C)Cc2ccsc2)c1 was -2.611%. Result for CCNC(=O)N(Cc1cccc(OC)c1)C1CCC(O)CC1 (stereo not drawn) was 3.406%.

Result for c1cncc(CN2CCC(c3ccnc4nccn34)C2)c1 (stereo not drawn) was 0.2604%. With CO[C@H]1CCN(Cc2cnn(C)c2)[C@@H]2CN(Cc3ccncc3)C[C@H]12 the screen gave 0.4149%. For CCN1CCCC1CNCc1cc2cc(OC)c(OC)cc2[nH]c1=O (stereo not drawn) the result was -5.639%. For Cc1nc(C)n(CC2CN(CCc3ccccn3)CCO2)n1 (stereo not drawn) the result was -2.271%. CCc1cnc(CNc2cccc3c2CCN(S(=O)(=O)CC)C3)o1 gave -0.5298%. For OC1CCN(c2ccnc(NCCc3ccccc3Cl)n2)CC1 the result was 1.088%. With Cn1ccnc1CN1CCN2C[C@H](OCc3ccccc3)C[C@H]2C1 the screen gave -3.58%. For Cc1cc(C(=O)N[C@@H]2CCC[C@@H](N3CCOCC3)[C@@H]2O)no1 the result was -10.13%.

Result for CC(C)Nc1nc2c(cc1C(=O)NCC1CC1)CCNCC2 was 0.9444%. COCc1nnc(C(=O)N2CC(N3CCCCC3)C2)o1 gave 4.645%. For CCOC(=O)C1(Cc2ccc(Cl)cc2)CCN(Cc2ncc[nH]2)CC1 the result was -1.302%. COc1cccc(OCC2CCCN(C(=O)CCn3ccnc3)C2)c1 (stereo not drawn) gave -14.6%. For CN1C(=O)C2(NC(=O)c3ccccc3O2)c2ccccc21 (stereo not drawn) the result was -5.004%. With CCS(=O)(=O)N1CCC2(CC1)CC(COC)N(c1ncccn1)C2 (stereo not drawn) the screen gave -0.9764%. COc1cc(CNCc2c(C)nn(CC(C)C)c2N(C)C)ccn1 gave -0.2052%. With CN1CCC(N2CCOC[C@H](OCC(=O)N(C)C)C2)CC1 the screen gave -2.06%.

For CC(C)CN1Cc2nc(N3CCCC(C)C3)ncc2C1=O (stereo not drawn) the result was 1.146%. Result for NC(=O)CCOc1nc(-c2ccccc2Cl)no1 was -0.4989%. Result for CN(C)CCN(C)C(=O)c1cn(CC2CCCCC2)nn1 was 2.907%. Cn1cccc1C(O)CNC(=O)COc1ccc(Cl)cc1Cl (stereo not drawn) read -1.9%. Cc1cc(C(=O)N2CCOC[C@H](Oc3cccnc3)C2)c(C(F)(F)F)o1 gave 2.786%. O=C(c1ccc(N2CCCCCC2)nn1)N1CCc2ccccc21 gave -12.21%. O=C(c1cnccn1)N1CCCC(Cn2cc(C3CC3)nn2)C1 (stereo not drawn) read 1.358%. COc1c(CNCCC(=O)Nc2cccc(C)n2)c(C)nn1C read -6.058%.

CC(=O)N1CCC(C(=O)c2cc(C)cnc2N)CC1 read -1.586%. Cn1c2ncccc2c(=O)n1CC(=O)NCCC1=CCCCC1 gave 5.433%. Result for CC(=O)N1CCO[C@@H]2CN(C(=O)NCc3cccnc3)CC[C@@H]2C1 was -3.843%. Result for COc1cc(C(=O)N2CCCS2(=O)=O)ccc1OC(C)C was 28.07%. O=C(O)CCn1ccc2cc(Br)ccc21 gave -1.4%.

Some entries from above, unchanged:

structure	Percent Effect
O=C(c1ccc(N2CCCCCC2)nn1)N1CCc2ccccc21	-12.21
CN1C(=O)C2(NC(=O)c3ccccc3O2)c2ccccc21 (stereo not drawn)	-5.004
NC(=O)CN1CCCN(C(=O)c2ccn(-c3cccc(F)c3)n2)CC1	-6.825
COc1cc(CNCc2c(C)nn(CC(C)C)c2N(C)C)ccn1	-0.2052